# Assay results: US20100216191A1, “Method for Manufacturing a Modified Peptide” (PROCOMCURE BIOTECH GMBH, priority 2007, published 2010)
# The chains behind the UniProt entries cited, without tags or fusion partners. Where a name states a change or a piece, a line headed by the entry shows the natural chain unless it says otherwise.
# UniProt P13647: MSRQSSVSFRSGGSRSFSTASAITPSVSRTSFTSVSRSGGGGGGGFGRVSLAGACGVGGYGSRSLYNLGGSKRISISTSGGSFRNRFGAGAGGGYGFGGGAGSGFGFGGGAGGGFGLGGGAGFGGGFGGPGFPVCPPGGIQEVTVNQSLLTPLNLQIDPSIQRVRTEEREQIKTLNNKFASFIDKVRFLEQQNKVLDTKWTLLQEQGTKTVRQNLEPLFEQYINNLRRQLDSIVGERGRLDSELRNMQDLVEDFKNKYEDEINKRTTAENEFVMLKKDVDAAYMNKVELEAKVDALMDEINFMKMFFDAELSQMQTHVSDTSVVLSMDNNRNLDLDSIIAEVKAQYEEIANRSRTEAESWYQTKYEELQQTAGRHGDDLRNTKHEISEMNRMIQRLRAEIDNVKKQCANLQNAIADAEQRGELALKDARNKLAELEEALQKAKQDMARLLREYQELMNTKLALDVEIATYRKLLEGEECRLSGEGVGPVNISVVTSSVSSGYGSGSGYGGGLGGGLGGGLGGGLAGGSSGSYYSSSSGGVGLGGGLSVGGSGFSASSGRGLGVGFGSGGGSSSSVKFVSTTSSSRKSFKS
# UniProt P02538: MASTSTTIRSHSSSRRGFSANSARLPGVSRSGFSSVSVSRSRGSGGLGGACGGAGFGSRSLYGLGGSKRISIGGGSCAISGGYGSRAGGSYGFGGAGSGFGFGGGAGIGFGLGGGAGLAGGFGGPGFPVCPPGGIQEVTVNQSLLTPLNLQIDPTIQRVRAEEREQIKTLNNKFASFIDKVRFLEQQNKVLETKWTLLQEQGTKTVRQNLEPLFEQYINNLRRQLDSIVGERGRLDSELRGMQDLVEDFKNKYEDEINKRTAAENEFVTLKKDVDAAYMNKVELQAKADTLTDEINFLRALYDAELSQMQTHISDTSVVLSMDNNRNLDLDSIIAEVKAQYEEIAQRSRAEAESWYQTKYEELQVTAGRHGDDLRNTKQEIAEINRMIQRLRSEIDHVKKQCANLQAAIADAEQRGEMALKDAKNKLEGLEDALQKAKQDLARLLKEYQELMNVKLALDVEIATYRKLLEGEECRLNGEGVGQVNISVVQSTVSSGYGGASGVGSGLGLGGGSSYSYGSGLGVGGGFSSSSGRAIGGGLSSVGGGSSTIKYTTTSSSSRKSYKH
# UniProt P05787: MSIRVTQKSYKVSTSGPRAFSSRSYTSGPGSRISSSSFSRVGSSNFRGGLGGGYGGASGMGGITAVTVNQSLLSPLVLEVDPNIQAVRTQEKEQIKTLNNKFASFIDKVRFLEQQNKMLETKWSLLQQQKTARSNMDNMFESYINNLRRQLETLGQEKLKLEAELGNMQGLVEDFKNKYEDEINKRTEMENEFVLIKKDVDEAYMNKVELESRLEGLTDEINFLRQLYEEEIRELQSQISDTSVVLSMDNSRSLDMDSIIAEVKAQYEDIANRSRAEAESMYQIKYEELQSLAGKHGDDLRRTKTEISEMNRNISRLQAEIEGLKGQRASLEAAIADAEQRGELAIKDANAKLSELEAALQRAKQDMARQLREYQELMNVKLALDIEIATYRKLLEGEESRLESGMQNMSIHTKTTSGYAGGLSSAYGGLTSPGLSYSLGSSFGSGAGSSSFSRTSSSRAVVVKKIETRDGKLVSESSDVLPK
# Results are given in words; binding and its absence hold for the method and conditions named. Some results given as binding are weak or reduced against the parent protein; the word gives no strength.
# How the values were obtained:
# [1] = target: ClfB (clumping factor B of S. aureus, NCBI Protein GI 15925620) (Staphylococcus aureus) (UniProt Q99R07); experiment: pull-down and immunoprecipitation with recombinant proteins
# [2] = target: ClfB (clumping factor B of S. aureus, NCBI Protein GI 15925620) (Staphylococcus aureus) (UniProt Q99R07); experiment: Y2H screen, human keratinocyte cDNA library
# [3] = target: ClfB (clumping factor B of S. aureus, NCBI Protein GI 15925620) (Staphylococcus aureus) (UniProt Q99R07); experiment: Y2H screen
# [4] = target: ClfB (clumping factor B of S. aureus, NCBI Protein GI 15925620) (Staphylococcus aureus) (UniProt Q99R07); experiment: pull-down
substance,measurement,setting,value
KRT5 (from UniProt P13647 1-590),binding,[1],binds
same,binding,[2],binds
KRT6A (from UniProt P02538 1-564),binding,[1],binds
same,binding,[2],binds
"KRT8 (Keratin 8, NCBI Protein GI 50368987) (from UniProt P05787 374-483)",binding,[1],binds
same,binding,[3],binds
same,binding,[4],binds
same,binding,[2],binds
